Test results reported in patent publication US20040210950A1.
These are yes or no findings as the source states them, for the method shown. Some binding calls cover weakened binding; strength is not graded here.

Amino acid sequences for entries named in this document (tags omitted). A change or cut given only in a name is not applied to a line headed by its entry.
UniProt P04386: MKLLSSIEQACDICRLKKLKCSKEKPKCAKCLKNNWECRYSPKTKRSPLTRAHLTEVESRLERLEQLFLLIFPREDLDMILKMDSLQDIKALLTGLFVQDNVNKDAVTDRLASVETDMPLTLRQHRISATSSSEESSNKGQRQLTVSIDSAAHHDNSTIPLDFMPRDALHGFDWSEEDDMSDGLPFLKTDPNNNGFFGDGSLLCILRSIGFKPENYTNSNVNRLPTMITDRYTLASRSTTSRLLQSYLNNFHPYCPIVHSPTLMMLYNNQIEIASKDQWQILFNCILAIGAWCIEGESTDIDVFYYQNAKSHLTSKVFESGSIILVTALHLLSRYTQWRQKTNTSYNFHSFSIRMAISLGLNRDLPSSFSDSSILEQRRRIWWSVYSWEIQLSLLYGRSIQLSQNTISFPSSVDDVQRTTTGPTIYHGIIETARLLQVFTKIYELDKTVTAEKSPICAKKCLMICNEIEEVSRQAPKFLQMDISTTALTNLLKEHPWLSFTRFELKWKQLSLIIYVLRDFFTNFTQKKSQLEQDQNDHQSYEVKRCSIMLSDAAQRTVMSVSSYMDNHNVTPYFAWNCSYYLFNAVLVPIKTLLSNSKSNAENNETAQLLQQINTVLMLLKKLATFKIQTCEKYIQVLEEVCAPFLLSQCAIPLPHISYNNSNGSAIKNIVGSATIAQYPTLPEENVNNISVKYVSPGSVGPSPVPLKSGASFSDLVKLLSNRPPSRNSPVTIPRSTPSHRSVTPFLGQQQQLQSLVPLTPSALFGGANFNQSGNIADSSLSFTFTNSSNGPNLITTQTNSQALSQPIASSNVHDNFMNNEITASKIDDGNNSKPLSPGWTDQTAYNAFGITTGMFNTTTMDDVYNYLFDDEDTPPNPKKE

Columns and labels:
[1] = molecular target: T1, full-length mouse CnA-α fused to the GAL4 DNA binding domain (yeast; mouse) (UniProt P04386+P63328); test: yeast two-hybrid screen
[2] = molecular target: T1, full-length mouse CnA-α fused to the GAL4 DNA binding domain (yeast; mouse); test: yeast two-hybrid screen, GAL4 DNA binding domain-CnA-α as bait, heart cDNA library

binding [1]: binds
binding [2]: binds
B1: calsarcin-1 (cDNA clone found in the two-hybrid screen with CnA-α as bait) (protein, not shown: large carriers)
chain: MLSHNTMMKQRKQQATAIMKEVHGNDVDGMDLGKKVSIPRDIMLEELSHLSNRGARLFKMRQRRSDKYTFENFQYQSRAQINHSIAMQNGKVDGSNLEGGSQQAPLTPPNTPDPRSPPNPDNIAPGYSGPLKEIPPEKFNTTAVPKYYQSPWEQAISNDPELLEALYPKLFKPEGKAELPDYRSFNRVATPFGGFEKASRMVKFKVPDFELLLLTDPRFMSFVNPLSGRRSFNRTPKGWISENIPIVITTEPTDDTTVPESEDL
